## Results from one PubChem assay

The results are deposited in PubChem (AID977630; Broad Institute, 2014).

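Mixed E. coli culture in which the wild-type GFP-labelled strain's fluorescence is read after 24 h, reported as change in activity. Percent-style change in GFP activity at 50 µM; values more negative mean stronger inhibition. Active needs green reporter loss at least twice the red loss with limited overall growth inhibition; inconclusive means no clear call.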

Common to all entries: at 50 µM (top of the series). Every entry below has the call inconclusive. Only part of the assay is shown, chiefly results filed as inconclusive.

{"structure": "C=CCn1c(SCC(=O)Nc2ccc3c(c2)OCCO3)nnc1-c1ccco1", "activity change": "-5.62"}
{"structure": "Cc1c(C(=O)OCC(=O)N(C)c2ccccc2)oc2ccccc12", "activity change": "-36.03"}
{"structure": "COc1ccccc1C(=O)Nc1cccc2cccnc12", "activity change": "-15.23"}
{"structure": "CC(=O)c1ccccc1OCCOCCOCCOc1ccccc1C(C)=O", "activity change": "-12.4"}
{"structure": "CC1CCN(c2ccc3nnc(CCC(=O)Nc4cccc(F)c4)n3n2)CC1", "activity change": "-19.66"}
{"structure": "Cc1ccc(OCCn2c(=S)[nH]c3c(N)ncnc32)cc1", "activity change": "-44.29"}
{"structure": "CCOc1ccccc1NS(=O)(=O)c1ccc(Br)s1", "activity change": "-26.03"}
{"structure": "Cc1ccc2nc(SCC(=O)c3ccc(O)cc3O)[nH]c2c1", "activity change": "-36.28"}
{"structure": "Cc1c(NC(=O)c2ccc([N+](=O)[O-])o2)cccc1-c1nc2ncccc2o1", "activity change": "-45.67"}
{"structure": "Cc1ccc2ccccc2c1CSc1nc(N)nc2c1ncn2CC(C)C", "activity change": "-41.32"}
{"structure": "C=CCSc1cc(C)nc2c(-c3ccccc3)c(C)nn12", "activity change": "2.082"}
{"structure": "CCC(CO)Oc1cc(NC(=O)c2ccccc2F)c2ncn(C(C)C)c2c1", "stereo": "centres undefined", "activity change": "-5.22"}
{"structure": "Nc1ccc(C(=O)OCCc2ccccc2)cc1", "activity change": "-26.7"}
{"structure": "COc1ccc(C)c2sc(N(CCN(C)C)C(=O)c3ccc(S(=O)(=O)N(C)c4ccccc4)cc3)nc12", "activity change": "-6.526"}
{"structure": "CCN(CC)CC(=O)Nc1sc(C)c(C)c1C(=O)c1ccc(C)cc1", "activity change": "-64.46"}
{"structure": "Clc1ccccc1-c1nnc2sc(CCc3ccccc3)nn12", "activity change": "-38.21"}
{"structure": "COc1ccc(OC)c(S(=O)(=O)Nc2cccc3ccc(O)cc23)c1", "activity change": "-28.53"}
{"structure": "COc1ccccc1-c1ccc(SCc2ccc(F)cc2)nn1", "activity change": "-33.93"}
{"structure": "O=C(CSc1ccccc1)NCCCc1ccccc1", "activity change": "-2.486"}
{"structure": "O=C(CN1CCC(n2nnc3cc(F)ccc32)CC1)N1CCc2ccccc2C1", "activity change": "8.042"}
{"structure": "CC(C)OC(=O)C[N+](C)(C)CCN1C(=O)C2C(c3ccccc3)C=CC(c3ccccc3)C2C1=O", "stereo": "centres undefined", "activity change": "8.651"}
{"structure": "CC(C)(Nc1ccccc1)C(=O)c1ccccc1", "activity change": "-10.6"}
{"structure": "O=C(N[C@@H](Cc1ccccc1)C(=O)OCc1ccccc1)c1nc[nH]c1C(=O)NC1CCNCC1", "activity change": "-6.821"}
{"structure": "CCOC(=O)c1cc2sccc2n1CCCN1C(=O)c2ccccc2C1=O", "activity change": "-26.99"}
{"structure": "Cc1ccc(-n2nnnc2CNC(=O)c2ccc([N+](=O)[O-])o2)cc1C", "activity change": "10.28"}
{"structure": "COc1ccc(-c2ccccc2)cc1NC(=O)c1ccncc1", "activity change": "-19.42"}
{"structure": "COc1ccc(Cl)cc1NC(=O)CN(C)CC(=O)Nc1ccccc1-c1ccccc1", "activity change": "-3.398"}
{"structure": "O=C(CC(c1ccccc1)c1cc(Br)ccc1O)N1CCCC1", "stereo": "centres undefined", "activity change": "-30"}
{"structure": "N#Cc1nc(Cc2ccccc2)oc1N1CCCC1", "activity change": "-28.54"}

Repeated from the top, 3 entries:

{"structure": "C=CCn1c(SCC(=O)Nc2ccc3c(c2)OCCO3)nnc1-c1ccco1", "activity change": "-5.62"}
{"structure": "Cc1c(C(=O)OCC(=O)N(C)c2ccccc2)oc2ccccc12", "activity change": "-36.03"}
{"structure": "COc1ccccc1C(=O)Nc1cccc2cccnc12", "activity change": "-15.23"}